Values from PubChem BioAssay AID1259254 (NCATS, 2017)

- Aim: 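Gene knock-downs that lead to re-replication, shown by excess G2 DNA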 (primary screen)
- Cells: human HCT116 colorectal cancer cells
- Reagent: single siRNA against human genes
- Timing: 3 days
- Detection: 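Imaged Hoechst DNA stain sorts each cell into a cycle phase by DNA amount; per plate, G2 fraction set to 0% for non-targeting and 100% for GMNN siRNA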
- Reading the numbers: G2 robust z-score: higher = more G2 cells, more excess DNA replication
- Rule for the call: 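Active siRNAs have a G2 robust z of 5 or more median absolute deviations over the median, which in these data means about 38% or higher of GMNN control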
Shown is an unselected part of about 59,000 deposited reagents. In the full data, about 1,550 (2.6%) are marked active. 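G2 share is only a proxy for re-replication; each gene was hit by three separate siRNAs, and active genes were retested.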 Not all columns of the deposit are shown. Reagent sequences are not shown. Not stated in the record: the amount of reagent.

Against PHLDB2 [SID160753558], the values are G2 robust z-score -0.569; inactive. For PHLDB2 [SID160753560] the deposit lists G2 robust z-score 0.137; inactive. With knock-down of PHLDB2 [SID160753561], the screen gave G2 robust z-score -0.145; inactive. Silencing of MRPL14 [SID160748146] came out at: G2 robust z-score -0.73; inactive. With knock-down of MRPL14 [SID160748149] the results were G2 robust z-score -0.802; inactive. Silencing of MRPL14 [SID160748150] resulted in: G2 robust z-score -0.779; inactive.

DHRS7 [SID160741124] gave G2 robust z-score 0.0699; inactive. Against DHRS7 [SID160741125], the values are G2 robust z-score -1.05; inactive. Knock-down of DHRS7 [SID160741126] gave: G2 robust z-score 0.881; inactive. After knock-down of ABRACL [SID160746919], the screen gave G2 robust z-score 3.03; inactive. Knock-down of ABRACL [SID160746920] gave: G2 robust z-score -0.388; inactive. ABRACL [SID160746921] gave G2 robust z-score -0.14; inactive.

A few values from the entries so far.
Under “G2 robust z-score”, MRPL14 [SID160748150] is entered as -0.779
MRPL14 [SID160748149], G2 robust z-score = -0.802
